Measurements as given in PubChem BioAssay AID1347076 (National Center for Advancing Translational Sciences (NCATS), 2019).
In all, about 400,000 compounds went through this assay and about 13,000 (3.2%) were called active. Inconclusive means that the source gave no clear call. Such entries were picked first, then a sample of the others. Calls follow the shape of the dose curve; as a rule, active = well fitted cell-killing curve with a large enough effect; inconclusive = small, poorly fitted or top-dose-only effect, or effect the other way; inactive = flat fitted curve, though single readings scatter. Potencies beside an inconclusive call are fits to weak or partial responses and may not hold up.

Experiment: qHTS assay for MDR1-selective chemotherapeutics: Primary screen using the drug-selected MDR subline cells KB-V1; also: nearly all actives have a fitted effect of over 60% in size
Details: KB-V1 MDR cells viability, CellTiter-Glo, 72 h; activity change, negative = cytotoxicity: at 46.1 µM (top of the series)
Method in brief: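 KB-V1, DMEM (no phenol red) + 10% FBS; cpd pin-transferred, titration series; 72 h, 37 degrees C; CellTiter-Glo, luminescence. Data normalized, curve-fit.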
% is scaled to controls: 0 for no effect and ±100 for the full control effect; potency is read from the fitted curve at half-maximal effect.

Row | SMILES | Potency | activity change, negative = cytotoxicity
1 | CCn1c(N2CCN(C(=S)NCCc3ccccc3)CC2)nc2ccccc21 | inconclusive: 29.1 µM [cytotoxic, single point] | 
2 | COc1ccccc1OCc1ccc(C(=O)NCC2CCCO2)cc1 (configuration not stated) | inconclusive: 16.4 µM [cytotoxic, single point] | 
3 | O=C(CN1C(=O)/C(=C/c2ccc(F)cc2)SC1=S)N1CCN(CCc2ccccn2)CC1 | inactive | 
4 | COc1cccc(CCNC(=O)c2cc(COc3ccc(C)c(C)c3)on2)c1OC | inconclusive: 20.6 µM [cytotoxic, single point] | 
5 | O=C(COc1ccc(Cl)cc1)Nc1ccc(Cc2ccncc2)cc1 | inconclusive: 20.6 µM [cytotoxic, partial curve] | 
6 | COc1ccc(C(O)P(=O)(OCCC(C)C)c2ccc(N(C)C)cc2)cc1OC (configuration not stated) | inconclusive: 29.1 µM [cytotoxic, single point] | 
7 | COc1ccccc1-n1c(SCC(=O)Nc2nnc(C)s2)nc2c(c1=O)SCC2 | inconclusive: 8.2 µM [cytotoxic, partial curve] | 
8 | Cc1ccc(C(=O)NCC2(c3ccccc3)CCCC2)cc1 | inactive | 
9 | COc1ccc(C(=O)c2sc3nc(C)cc(-c4cccs4)c3c2N)cc1OC |  | inconclusive: -22.8%
10 | CC(C)[C@H](NC(=O)[C@@H]1Cc2ccccc2CN1)C(=O)NC1CCCCC1 | inactive | 
11 | O=C(Cc1cccs1)NCc1ccc(Cl)cc1Cl | inactive | 
12 | COC(=O)c1ccc(N2CCC(c3cc(-c4ccc(OC)cc4)n[nH]3)CC2)c([N+](=O)[O-])c1 | inconclusive: 18.4 µM [cytotoxic, single point] | 
13 | CCOC(=O)N1CCN(C(=O)c2ccc(C)c(S(=O)(=O)Nc3cccc(C)c3C)c2)CC1 | inconclusive: 11.6 µM [cytotoxic, partial curve, poor fit] | 
14 | COc1ccc(N2CCN(C(=O)c3cnn(-c4ccc(F)cc4)c3-n3cccc3)CC2)cc1 | inconclusive: 20.6 µM [cytotoxic, single point] | 
15 | O=C(CSC1=NC(=O)C(c2ccccc2)C(=O)N1)Nc1ccccc1[N+](=O)[O-] (configuration not stated) | inactive | 
16 | Clc1ccc2c(c1)-c1c(cnc3cc(-c4ccccc4)nn13)CO2 | inconclusive: 16.4 µM [rising, single point] | 
17 | COc1ccc(C(=O)COC(=O)CCNS(=O)(=O)c2ccccc2)c(OC)c1 | inconclusive: 14.6 µM [rising, partial curve, poor fit] | 
18 | CC(=O)Nc1nc(C)cs1 | inconclusive: 20.6 µM [rising, single point] | 
19 | COc1ccc(C2/C=C\CN(C(=O)c3ccc(C)cc3)[C@H](Cc3ccccc3)C(=O)N2Cc2ccc(F)cc2)cc1 (some centres not stated) | inconclusive: 16.4 µM [cytotoxic, single point] | 
20 | COc1ccccc1C(=O)NCc1nnc(SCC(=O)Nc2nccs2)n1C | inconclusive: 25.9 µM [rising, single point] | 
21 | CCOc1ccc(NC(=O)C2(c3ccc(OC)c(OC)c3)CCCC2)cc1 | inconclusive: 20.6 µM [cytotoxic, partial curve, poor fit] | 

Gathered by group: the compounds so far with a nitro group on carbon (two)
Row | SMILES | Potency | activity change, negative = cytotoxicity
12 | COC(=O)c1ccc(N2CCC(c3cc(-c4ccc(OC)cc4)n[nH]3)CC2)c([N+](=O)[O-])c1 | inconclusive: 18.4 µM [cytotoxic, single point] | 
15 | O=C(CSC1=NC(=O)C(c2ccccc2)C(=O)N1)Nc1ccccc1[N+](=O)[O-] (configuration not stated) | inactive | 

Carrying on.

Row | SMILES | Potency | activity change, negative = cytotoxicity
22 | COc1ccc(OCC(=O)NNC(=O)c2ccccn2)cc1 | inconclusive: 20.6 µM [cytotoxic, single point] | 
23 | Nc1c(Br)cc(C=O)cc1Br | inactive | 
24 | Cc1ccc(-n2c(C)cc(/C=c3/sc4nc5ccccc5n4c3=O)c2C)cc1 | inactive | 
25 | CCS(=O)(=O)c1ncc(Cl)c(C(=O)Nc2ccc(S(=O)(=O)N3CCC(C)CC3)cc2)n1 | active: 10.3 µM | 
26 | CSc1cccc(Nc2cc(C(=O)NCCc3ccc(Cl)cc3)c3ccccc3n2)c1 | inconclusive: 29.1 µM [cytotoxic, single point] | 
27 | CCCN1CCC(Oc2cccc(C(=O)NCCc3ccccc3)c2)CC1 | inconclusive: 20.6 µM [cytotoxic, partial curve, poor fit] | 
28 | Cn1c(=O)[nH]c(=O)c2c1nc(CN1CCN(c3ccccc3F)CC1)n2CCc1ccccc1 | inactive | 
29 | O=S(=O)(O)c1ccc2c(N=Nc3ccc(S(=O)(=O)O)c4ccccc34)c(O)c(S(=O)(=O)O)cc2c1 | inconclusive: 4.11 µM [cytotoxic, full curve, poor fit] | 
30 | CCOC(=O)C1=CCN(S(=O)(=O)c2ccccc2C)C1c1cccc(Br)c1 (configuration not stated) | inconclusive: 20.6 µM [cytotoxic, single point] | 
31 | CCCCN(C=O)c1c(CC)nc2c(OCc3ccc(S(C)(=O)=O)cc3)cccn12 | inconclusive: 0.0052 µM [rising, full curve] | 
32 | CCOc1ccc(C(=O)Nc2nnc(S(=O)(=O)Nc3ccccc3)s2)cc1 | inactive | 
33 | CCCN(CC(=O)Nc1ccccc1C)C(=O)CCCNC(=O)c1ccc(Cl)cc1 | inconclusive: 14.6 µM [cytotoxic, partial curve, poor fit] | 
34 | O=C(/C=C/Nc1ccc(S(=O)(=O)Nc2cnc3ccccc3n2)cc1)c1cccnc1 | inconclusive: 20.6 µM [cytotoxic, single point] | 
35 | COc1cc(/C=N/Nc2nc(C)cc(=O)[nH]2)cc(OC)c1O | inactive | 
36 | CCN(CC)S(=O)(=O)c1cc([N+](=O)[O-])ccc1NNC(=O)Nc1ccccc1OC | inconclusive: 0.92 µM [cytotoxic, full curve, poor fit] | 
37 | O=C1CCCc2cc(S(=O)(=O)N3CCCC(C(=O)Nc4ccc(F)c(Cl)c4)C3)ccc2N1 (configuration not stated) | inconclusive: 29.1 µM [cytotoxic, single point] | 
38 | CC(OC(=O)C1CC=CCC1C(N)=O)C(Cl)=C(Cl)Cl (configuration not stated) | inconclusive: 32.6 µM [rising, single point] | 
39 | COc1ccc(OC)c(N(CC(=O)N2CCC(C)CC2)S(=O)(=O)c2ccccc2)c1 | active: 7.31 µM | 
40 | Cc1noc(C)c1NC(=O)Nc1cccc2c1O[C@H](CN(C)C(=O)NC(C)C)[C@@H](C)CN([C@H](C)CO)C2=O | inconclusive: 25.9 µM [rising, single point] | 
41 | Cc1ccc2[nH]c(C)cc(=S)c2c1 | inconclusive: 29.1 µM [cytotoxic, single point] | 
42 | CC(C)CCOCC(=O)Oc1ccccc1C(=O)O | inconclusive: 20.6 µM [rising, single point] | 
